PubChem BioAssay AID1259308 – NCATS, 2017
Screen: 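Knock-downs that increase output of a recombinant reporter protein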 (primary screen). Cells: human HEK293 embryonic kidney cells stably expressing firefly luciferase (HEK-CMV-Luc2-Hygro). Knock-down reagent: single siRNA against human genes, 0.8 pmol siRNA per well. Timing: 72 h. Measurement: 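Reporter luminescence and viable-cell signal on separate replicate plates, given as percent of non-targeting control and median/MAD z-scores, plus per-cell luciferase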. Reading the numbers: total luciferase, z-score and total luciferase, % of control: higher = more reporter protein produced. Rule for the call: 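An siRNA counts as active if its total luciferase robust z-score exceeds 3; genes with two or more such siRNAs out of three were retested with fresh siRNAs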. Meaning of the calls: active = raised luciferase; inactive = no rise.
The deposit covers about 59,000 reagents; this is an unselected part. About 1,510 of all reagents (2.6%) count as active. 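Calls use total luciferase alone and ignore viability, so some active siRNAs may act by altering cell number.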 Reagents against one gene are numbered here. Further read-outs or replicates are left out here.

What is on record for RPLP2 #1?
total luciferase, z-score: -2.76; total luciferase, % of control: 27; Call: inactive

Which result is listed for RPLP2 #2?
total luciferase, z-score: -2.51; total luciferase, % of control: 31.9; Call: inactive

With RPLP2 #3, what does the deposit list?
total luciferase, z-score: -2.63; total luciferase, % of control: 29.5; Call: inactive

For PLEKHH1 #1, how do the results read?
total luciferase, z-score: -0.681; total luciferase, % of control: 68.3; Call: inactive

For PLEKHH1 #2, what was measured?
total luciferase, z-score: 0.15; total luciferase, % of control: 84.9; Call: inactive

For PLEKHH1 #3, how do the results read?
total luciferase, z-score: 0.0973; total luciferase, % of control: 83.8; Call: inactive

With MEIOB #1, what does the deposit list?
total luciferase, z-score: -0.0497; total luciferase, % of control: 80.9; Call: inactive

What did the screen give for MEIOB #2?
total luciferase, z-score: -1.11; total luciferase, % of control: 59.9; Call: inactive

Which result is listed for MEIOB #3?
total luciferase, z-score: -0.462; total luciferase, % of control: 72.7; Call: inactive

What is on record for RNF133 #1?
total luciferase, z-score: 0.887; total luciferase, % of control: 99.5; Call: inactive

How did the screen score RNF133 #2?
total luciferase, z-score: 0.789; total luciferase, % of control: 97.6; Call: inactive

What did the screen give for RNF133 #3?
total luciferase, z-score: 0.263; total luciferase, % of control: 87.1; Call: inactive

For FCGR3A #1, what was measured?
total luciferase, z-score: -0.167; total luciferase, % of control: 78.6; Call: inactive

With FCGR3A #2, what was measured?
total luciferase, z-score: -0.308; total luciferase, % of control: 75.8; Call: inactive

What did the screen give for FCGR3A #3?
total luciferase, z-score: -1.03; total luciferase, % of control: 61.4; Call: inactive

For GADL1 #1, how do the results read?
total luciferase, z-score: 1.13; total luciferase, % of control: 104; Call: inactive

Which result is listed for GADL1 #2?
total luciferase, z-score: -3.02; total luciferase, % of control: 21.7; Call: inactive

With GADL1 #3, what does the deposit list?
total luciferase, z-score: -0.303; total luciferase, % of control: 75.9; Call: inactive

What did the screen give for OR4E1 #1?
total luciferase, z-score: -0.463; total luciferase, % of control: 72.7; Call: inactive

Which result is listed for OR4E1 #2?
total luciferase, z-score: -0.0446; total luciferase, % of control: 81; Call: inactive

For OR4E1 #3, how do the results read?
total luciferase, z-score: 0.565; total luciferase, % of control: 93.1; Call: inactive

An excerpt from above, reduced to “total luciferase, z-score”.
RNF133 #3	0.263
FCGR3A #1	-0.167
FCGR3A #2	-0.308
FCGR3A #3	-1.03

Additional records follow:
What did the screen give for SRSF4 #1?
total luciferase, z-score: 0.517; total luciferase, % of control: 92.2; Call: inactive

With SRSF4 #2, what does the deposit list?
total luciferase, z-score: -0.632; total luciferase, % of control: 69.3; Call: inactive

For SRSF4 #3, what does the deposit list?
total luciferase, z-score: -0.365; total luciferase, % of control: 74.6; Call: inactive

For HPGDS #1, how do the results read?
total luciferase, z-score: -1.4; total luciferase, % of control: 54.1; Call: inactive

What is on record for HPGDS #2?
total luciferase, z-score: -2.06; total luciferase, % of control: 40.9; Call: inactive

How did the screen score HPGDS #3?
total luciferase, z-score: 0.451; total luciferase, % of control: 90.9; Call: inactive

With FOXR2 #1, what was measured?
total luciferase, z-score: -1.1; total luciferase, % of control: 59.9; Call: inactive

How did the screen score FOXR2 #2?
total luciferase, z-score: 0.682; total luciferase, % of control: 95.5; Call: inactive

What is on record for FOXR2 #3?
total luciferase, z-score: 0.44; total luciferase, % of control: 90.6; Call: inactive

What is on record for BHLHE41 #1?
total luciferase, z-score: -0.517; total luciferase, % of control: 71.6; Call: inactive

Which result is listed for BHLHE41 #2?
total luciferase, z-score: -0.296; total luciferase, % of control: 76; Call: inactive

For BHLHE41 #3, what does the deposit list?
total luciferase, z-score: 0.337; total luciferase, % of control: 88.6; Call: inactive
